About 7,700 (2.3%) of roughly 330,000 compounds were called active. Inconclusive results, whose numbers are uncertain, are shown with a selection of clear calls. The call rests on the fitted dose curve; in most records, active means well fitted inhibition curve with a large enough effect; inconclusive means small, poorly fitted or top-dose-only effect, or effect the other way; inactive means flat fitted curve, though single readings scatter. Potencies of inconclusive entries are doubtful fits and often do not repeat.
Assay: qHTS screen for small molecules that inhibit ELG1-dependent DNA repair in human embryonic kidney (HEK293T) cells expressing luciferase-tagged ELG1; further: nearly all actives have a fitted effect of over 55% in size
Conditions: HEK293T ELG1-luciferase reporter, luminescence, 16 h, DNA damage induced by 5-fluorouridine; series mostly up to 46.1 µM
Procedure, shortened: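 Cells (2,000 per well) received 5-fluorouridine plus test compound or DMSO and were incubated 16 hr at 37 °C, 5% CO2. Luciferase activity was read by luminescence 30 min after ONE-Glo addition; signal suppression marked inhibition of damage-induced ELG1 function.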
Potency means the concentration at half of the fitted maximal effect.

Structure (SMILES)	Potency
CCCCn1nnnc1SCC(=O)c1ccccc1F	inactive
COc1ccc(OC)c(N/C=C/C(=O)c2ccc(OC)c(OC)c2)c1	inactive
Cc1ccc(C(=O)NC(=S)Nc2ccccc2C(F)(F)F)cc1C	inactive
CC(=O)c1ccc(OC(C)C(=O)Nc2cccc(S(=O)(=O)NCc3ccco3)c2)cc1 (stereo unspecified)	inconclusive: 23.1 µM [inhibitor, single point]
O=C(O)CCN1C(=O)/C(=C/c2ccc(-c3nc4ccccc4s3)o2)SC1=S	inconclusive: 18.4 µM [activator, partial curve]
CCOC(=O)Cc1[nH]nc2c1C(c1ccsc1)C(C#N)=C(N)O2 (stereo unspecified)	inconclusive: 18.3 µM [activator, partial curve, poor fit]
Cc1ccc2c(c1)N(C(=O)c1ccco1)C(C)(C)c1ssc(=S)c1-2	inactive
COc1ccc(-c2c(C)nn3c(NC4CCCC4)cc(C)nc23)cc1OC	inconclusive: 23.1 µM [inhibitor, single point]
Cc1cccc(Nc2cc(=O)n(C)c(=O)[nH]2)c1	inactive
Cc1cccc(CN2C(=O)/C(=C\c3ccc(C(=O)NCCN4CCOCC4)cc3)Sc3ccccc32)c1	active: 20.6 µM
COc1cc(N)ccc1NC(=O)c1cc2ccccc2o1	inconclusive: 7.3 µM [activator, partial curve]
Clc1ccc2[nH]c3c(c2c1)CCc1cn[nH]c1-3	inconclusive: 16.4 µM [activator, partial curve, poor fit]
CCS(=O)(=O)Nc1ccc(C2=NN(C(=O)c3ccco3)C(c3ccc(C)cc3)C2)cc1 (stereo unspecified)	inconclusive: 29.1 µM [inhibitor, single point]
O=C(Nc1ccc(N2CCOCC2)c(S(=O)(=O)Nc2ccccc2Cl)c1)c1ccccc1	active: 18.3 µM
O=C(c1cc(-c2cccs2)on1)N1CCc2ccccc2C1	inconclusive: 29.1 µM [activator, single point]
CCN(Cc1cccc(F)c1)C(=O)c1ccc2ccccc2n1	inconclusive: 18.3 µM [activator, partial curve]
CCN1C(=O)[C@H]2[C@@H](c3ccc(-c4cccc(Cl)c4)c(OC)c3)N[C@@](Cc3ccccc3)(C(=O)OC)[C@H]2C1=O	inactive
O=C(Nc1ncc2c(n1)CC(c1ccco1)CC2=O)c1ccccc1 (stereo unspecified)	inconclusive: 7.31 µM [activator, single point]
CSc1nc(-c2ccco2)nn1S(=O)(=O)c1ccc(C)cc1	inactive
CC(C)C(=O)Nc1cccc(C(=O)Nc2nnc(C(C)C)s2)c1	inconclusive: 4.11 µM [activator, partial curve]
CCc1ccc(CNC(=O)C2CC(=O)N(C3CCCC3)C2)cc1 (stereo unspecified)	inactive
CC(Cc1ccco1)NC(=O)c1cccc(S(=O)(=O)N(C)C)c1 (stereo unspecified)	inconclusive: 18.3 µM [activator, partial curve]
Cc1ccc(/C=N/NC(=S)NC2CCCCC2)o1	inconclusive: 18.3 µM [activator, partial curve]
CC1(C)Cc2c(C#N)c(NCCO)nc(-c3ccco3)c2CO1	inconclusive: 29.1 µM [inhibitor, single point]

Structure (SMILES)	Potency
COCc1c(C(=O)N2CCN(Cc3ccc4c(c3)OCO4)CC2)oc2ccccc12	inconclusive: 14.6 µM [inhibitor, single point]
O=C(NC1CC(=O)N(c2ccc(F)cc2)C1)N1CCN(C(=O)c2ccco2)CC1 (stereo unspecified)	inactive
Cc1ccc(S(=O)(=O)Nc2cccc(-c3cn4ccsc4n3)c2)cc1	inconclusive: 18.4 µM [inhibitor, single point]
O=C1CN(c2ccccc2)C(=S)N1C(=O)c1ccccc1	inconclusive: 9.2 µM [activator, partial curve]
Cc1ccc2nc(-c3ccc(NC(=O)COC(=O)c4cncc(Br)c4)cc3)sc2c1	inconclusive: 0.82 µM [activator, full curve]
CCCCC(=O)Nc1cccc(-c2cn3ccccc3n2)c1	inconclusive: 10.3 µM [activator, partial curve]
COc1ccc(-c2cn3cccnc3n2)cc1Br	inconclusive: 23.1 µM [activator, partial curve]
Cc1nn(-c2ccccc2)c2sc(C(=O)N3CCOCC3)cc12	inconclusive: 4.11 µM [activator, single point]
COc1ccc(Nc2nc(C)nc3c2oc2ccccc23)cc1	inconclusive: 20.6 µM [inhibitor, single point]
COc1ccc(C)cc1NC(=O)C1CCCN1S(=O)(=O)c1ccccc1F (stereo unspecified)	inconclusive: 3.26 µM [inhibitor, partial curve]
CCOCCCNC(=O)C(NC(=O)c1ccccc1O)c1ccc(Cl)cc1 (stereo unspecified)	inactive
O=C1c2ccccc2NC(c2ccc(O)cc2)N1c1ccccc1 (stereo unspecified)	inconclusive: 20.6 µM [activator, partial curve]
O=S(=O)(CC(CN1CCCC1)N1CCCC1)c1ccc2ccccc2c1 (stereo unspecified)	active: 11.6 µM
Cc1ccc(-c2noc(CSc3nnnn3-c3ccccc3)n2)cc1	inconclusive: 6.31 µM [inhibitor, single point]
CCOC(=O)CC(NC(=O)Cc1cccs1)c1ccccc1Cl (stereo unspecified)	inactive
CCC(=O)NCCc1nc2cc(NC(=O)c3ccccc3OC)ccc2n1C	inconclusive: 23.1 µM [activator, partial curve]
COc1cc(/C=N/N=C/c2c[nH]c(=O)c(C#N)c2Nc2ccccc2)ccc1O	inactive
Cc1sc(NC(=O)CSc2nnc3scc(-c4ccccc4)n23)c(C#N)c1C	inconclusive: 29.1 µM [activator, partial curve, poor fit]
Cc1ccccc1CS(=O)(=O)c1nnc([C@H](Cc2ccccc2)NC(=O)OC(C)(C)C)o1	inconclusive: 32.6 µM [inhibitor, single point]
COc1ccc(-n2c(Cc3cccn3C)nnc2SCC(=O)Nc2cc(Cl)ccc2OC)cc1	inconclusive: 29.1 µM [inhibitor, single point]
CC(C)(C)c1cc[n+](/C(C(=S)NC2CC2)=C(/[O-])c2ccc(Cl)s2)cc1	inconclusive: 18.4 µM [activator, partial curve, poor fit]
CC(=O)N1[C@H](C)C=C[C@]1(Cc1ccccc1)C(=O)O	inactive
CCOc1ccc(NC(=O)C2CCCN2C(=O)Oc2ccccc2)cc1 (stereo unspecified)	inactive
O=C(O)c1ccc(N/N=C/C2=C(N3CCOCC3)C(=C\c3ccccc3)/CC2)cc1	inconclusive: 18.3 µM [activator, single point]

Of the compounds above, 3 contain a COOH group.
Structure (SMILES)	Potency
O=C(O)CCN1C(=O)/C(=C/c2ccc(-c3nc4ccccc4s3)o2)SC1=S	inconclusive: 18.4 µM [activator, partial curve]
CC(=O)N1[C@H](C)C=C[C@]1(Cc1ccccc1)C(=O)O	inactive
O=C(O)c1ccc(N/N=C/C2=C(N3CCOCC3)C(=C\c3ccccc3)/CC2)cc1	inconclusive: 18.3 µM [activator, single point]

Going on with the list:

Structure (SMILES)	Potency
O=[N+]([O-])c1cc(S(=O)(=O)N2CCCC2)ccc1OCCOc1ccccc1	inactive
O=C(Nc1ccc(OC(F)(F)F)cc1)C1=NCCN1	inconclusive: 20.6 µM [activator, partial curve]
Cc1ccc(C2C(/C=C3/SC(=S)NC3=O)=C(c3cccs3)Oc3ccccc32)cc1 (stereo unspecified)	inconclusive: 20.6 µM [inhibitor, partial curve]
CN(CC(=O)NCc1ccc(Cl)cc1)S(=O)(=O)c1cccs1	inconclusive: 0.231 µM [inhibitor, full curve, poor fit]
Cc1ccnc2ccc(-c3nc4ccccc4o3)cc12	inconclusive: 2.91 µM [activator, partial curve]
C/C=C(\C)CN1CCCC(N(C)CCc2ccc(OC)c(OC)c2)C1 (stereo unspecified)	inactive
O=S(=O)(c1ccc(N2CCCC2c2nc3ccccc3s2)nc1)N1CCOCC1 (stereo unspecified)	inactive
N#CCc1nn2c3c(cnc2c1C#N)C(=O)CCC3	inactive
CSc1ccc(-c2nnn(Cc3ccc(C)cc3)n2)cc1	inconclusive: 2.31 µM [activator, single point]
NC(=O)c1cc([N+](=O)[O-])ccc1NCc1cccnc1	inconclusive: 29.1 µM [activator, single point]
CC(=O)N1CCN(c2ccc(NC(=O)C(C)Oc3ccc(Cl)cc3Cl)cc2)CC1 (stereo unspecified)	inconclusive: 6.51 µM [activator, single point]
CC(C)(C)S(=O)(=O)c1cnc(N2CCCCC2)nc1N	inactive
CC(=O)NC(=S)Nc1ccc(S(=O)(=O)Nc2nc(C)cc(C)n2)cc1	inconclusive: 14.6 µM [activator, partial curve, poor fit]
CCN(CC)S(=O)(=O)c1ccc2oc(SCC(=O)NC3CC3)nc2c1	inconclusive: 20.6 µM [activator, partial curve, poor fit]
COc1cccc(-c2ccnc3[nH]n(-c4ccccc4)c(=O)c23)c1	inconclusive: 16.4 µM [activator, partial curve]
COc1ccc(O)c(CN2CCC(n3nccc3NC(=O)CCOc3ccccc3)CC2)c1	inconclusive: 18.3 µM [inhibitor, single point]
CC(C)c1nnc(NC(=O)c2nc(S(=O)(=O)Cc3ccccc3)ncc2Cl)s1	inconclusive: 29.1 µM [inhibitor, single point]
O=C1CSC(c2ccc([N+](=O)[O-])cc2)N1c1ccccc1F (stereo unspecified)	inactive
Cc1ccc(C(=O)N2CCOCC2)cc1[N+](=O)[O-]	inactive
COCCCNc1nc2ccccc2nc1NS(=O)(=O)c1cc(Cl)ccc1Cl	inactive
O=C(c1c(F)cccc1F)N(C1CCCCC1)C1CCCCC1	inactive
CCOC(=O)c1[nH]c2c(c1C)C(=O)CC(c1ccc(F)cc1)C2 (stereo unspecified)	inconclusive: 14.6 µM [activator, single point]
COC(=O)Cn1c(=NC(=O)C2COc3ccccc3O2)sc2cc(S(N)(=O)=O)ccc21 (stereo unspecified)	inactive

An excerpt taken from the entries so far, as a working copy:
Structure (SMILES)	Potency
COc1ccc(O)c(CN2CCC(n3nccc3NC(=O)CCOc3ccccc3)CC2)c1	inconclusive: 18.3 µM [inhibitor, single point]
CC(C)c1nnc(NC(=O)c2nc(S(=O)(=O)Cc3ccccc3)ncc2Cl)s1	inconclusive: 29.1 µM [inhibitor, single point]
O=C1CSC(c2ccc([N+](=O)[O-])cc2)N1c1ccccc1F (stereo unspecified)	inactive
